Experimental data from PMC8897400.
These are yes or no findings as the source states them, for the method shown. Binding seen in cells or lysates may run through a third protein.

By UniProt entry, the sequences of proteins in these tests, tags left out. Where a name states a change or a piece, a line headed by the entry shows the natural chain unless it says otherwise.
UniProt O95373: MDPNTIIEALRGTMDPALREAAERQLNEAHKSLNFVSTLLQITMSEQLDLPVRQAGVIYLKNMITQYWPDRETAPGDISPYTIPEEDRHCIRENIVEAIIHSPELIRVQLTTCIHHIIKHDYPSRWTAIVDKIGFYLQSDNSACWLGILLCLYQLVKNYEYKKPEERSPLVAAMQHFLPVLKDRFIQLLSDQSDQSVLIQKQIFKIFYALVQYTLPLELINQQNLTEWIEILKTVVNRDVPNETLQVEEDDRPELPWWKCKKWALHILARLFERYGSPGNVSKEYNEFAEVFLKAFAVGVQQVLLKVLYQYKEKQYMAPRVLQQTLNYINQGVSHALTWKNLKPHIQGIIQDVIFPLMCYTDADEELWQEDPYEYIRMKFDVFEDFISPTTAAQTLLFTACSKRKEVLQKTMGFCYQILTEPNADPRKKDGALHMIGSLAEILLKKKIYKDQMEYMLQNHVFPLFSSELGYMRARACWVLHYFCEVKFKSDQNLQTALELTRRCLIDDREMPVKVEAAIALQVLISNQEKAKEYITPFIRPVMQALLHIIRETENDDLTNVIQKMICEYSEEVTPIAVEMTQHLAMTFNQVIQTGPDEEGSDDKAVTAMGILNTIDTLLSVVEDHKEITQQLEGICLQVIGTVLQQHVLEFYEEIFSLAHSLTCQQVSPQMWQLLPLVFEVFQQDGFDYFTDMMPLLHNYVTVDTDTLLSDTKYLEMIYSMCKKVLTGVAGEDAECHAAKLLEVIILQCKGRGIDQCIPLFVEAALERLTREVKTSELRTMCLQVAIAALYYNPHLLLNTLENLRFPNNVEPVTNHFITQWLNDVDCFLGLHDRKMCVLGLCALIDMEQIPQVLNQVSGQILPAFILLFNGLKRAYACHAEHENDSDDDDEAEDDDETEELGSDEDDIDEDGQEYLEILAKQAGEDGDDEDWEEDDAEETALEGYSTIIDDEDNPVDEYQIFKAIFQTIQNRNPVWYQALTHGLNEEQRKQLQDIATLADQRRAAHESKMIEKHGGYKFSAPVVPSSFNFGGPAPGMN
UniProt P08253: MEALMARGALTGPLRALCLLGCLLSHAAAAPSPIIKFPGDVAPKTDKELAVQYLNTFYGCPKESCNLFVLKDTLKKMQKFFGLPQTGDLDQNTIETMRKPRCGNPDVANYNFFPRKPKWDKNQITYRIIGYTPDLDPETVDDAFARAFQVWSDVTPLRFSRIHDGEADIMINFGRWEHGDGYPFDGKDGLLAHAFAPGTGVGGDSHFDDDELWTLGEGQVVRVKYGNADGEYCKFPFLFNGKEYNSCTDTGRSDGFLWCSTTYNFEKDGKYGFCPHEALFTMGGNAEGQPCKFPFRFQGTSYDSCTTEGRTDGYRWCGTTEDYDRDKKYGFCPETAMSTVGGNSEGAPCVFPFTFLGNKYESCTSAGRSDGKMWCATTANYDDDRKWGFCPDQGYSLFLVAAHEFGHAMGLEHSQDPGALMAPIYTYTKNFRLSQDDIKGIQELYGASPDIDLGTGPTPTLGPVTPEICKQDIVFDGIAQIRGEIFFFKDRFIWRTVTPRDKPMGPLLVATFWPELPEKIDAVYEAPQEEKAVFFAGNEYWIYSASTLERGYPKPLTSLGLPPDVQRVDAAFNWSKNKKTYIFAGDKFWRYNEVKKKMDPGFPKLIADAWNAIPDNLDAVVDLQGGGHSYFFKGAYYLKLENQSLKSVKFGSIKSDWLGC

Target: endogenous Importin-7 (human (endogenous in RPE-1)) (UniProt O95373)
Test: proximity ligation; in situ PLA (Duolink) of endogenous YAP (antibody 63.7) and Imp7 (rabbit antibody) in fixed, permeabilised RPE-1 cells; also after knock-down of Imp7, YAP or Smad3

- binding: no binding
Substance: endogenous MMP2 (from UniProt P08253)
